# Test results taken from patent publication US20190359710A1.
# By UniProt entry, the sequences of proteins in these tests, tags left out. Where a name states a change or a piece, a line headed by the entry shows the natural chain unless it says otherwise.
# UniProt P26951: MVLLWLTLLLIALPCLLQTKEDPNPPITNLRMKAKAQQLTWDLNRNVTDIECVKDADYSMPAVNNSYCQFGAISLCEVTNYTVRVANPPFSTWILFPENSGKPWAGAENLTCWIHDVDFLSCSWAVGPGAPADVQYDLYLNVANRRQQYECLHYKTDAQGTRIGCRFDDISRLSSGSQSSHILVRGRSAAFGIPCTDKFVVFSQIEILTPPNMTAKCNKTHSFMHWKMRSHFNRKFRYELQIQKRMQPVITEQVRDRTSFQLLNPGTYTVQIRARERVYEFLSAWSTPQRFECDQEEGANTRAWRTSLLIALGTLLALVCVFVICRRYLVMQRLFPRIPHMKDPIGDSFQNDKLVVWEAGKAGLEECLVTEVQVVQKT
# These are yes or no findings as the source states them, for the method shown. Some entries that bind do so weakly or less than the wild type.
# Experiments:
# [1] = target: human CD123 (alpha chain of the interleukin-3 receptor) (human) (UniProt P26951); experiment: calibrated flow cytometry on antigen-positive cells, variants compared
# protein A = protein A (UniProt P38507); experiment: batch capture on Protein A Sepharose 4 Fast Flow beads, elution at pH 3.0
binding [1],binding (protein A),Binder
binds,,"candidate triplebody hu[33-ds16-ds123RK] before polishing of the sequence (protein, not shown: small tags and cut ends) EVQLVESGGGLIQPGGSLRLSCAASGFPLTSYGVSWVRQPPGKGLEWLGVIWGDGSTNYHSALISRFTISRDNSKNTLYLQMNSLRAEDTAVYYCARDTYYPYYAMDYWGQGTTVTVSSGGGGSGGGGSGGGGSDIQMTQSPSSLSASVGDRVTITCKASQDVSTAVAWYQQKPGKAPKLLIYSASYRYTGVPSRFSGSGSGTDFTLTISSLQPEDFATYYCQQHYSTPLTFGQGTKLEIKRGGGGSGGGGSGGGGSGGGGSDIVLTQSPSSLSASVGDRVTITCKASQSVDFDGDSFMNWYQQKPGKAPKLLIYTTSNLESGVPSRFSASGSGTDFTLTISSLQPEDFATYYCQQSNEDPYTFGCGTKVEIKRGGGGSGGGGSGGGGSGGGGSEVQLVESGGGDVQPGGSLRLSCAFSGFSLRTSGMGVGWIRQAPGKCLEWVAHIWWDDDKRYNPSVKGRFTISKDTSSNTVYLQMNSLRAEDTAVYYCAQINPAWFAYWGQGTLVTVSSGGGGSGGGGSGGGGSGGGGSEVQLVESGGGLVQPGGSLRLSCAASGFTFTDYYMSWVRQAPGKCLEWLALIRSKADGYTTEYSASVKGRFTISRDDSKNSLYLQMNSLKTEDTAVYYCARDAAYYSYYSPEGAMDYWGQGTSVTVSSGGGGSGGGGSGGGGSDIQMTQSPSSLSASVGDRVTITCKASQNVDSAVAWYQQKPGKAPKALIYSASYRYSGVPSRFSGSGSGTDFTLTISSLQPEDFATYYCQQYYSTPWTFGCGTKVEIKR"
,binds,"single chain triplebody SPM-2, hu(33-ds16-ds123RK) (protein) EVQLVESGGGLIQPGGSLRLSCAASGFPLTSYGVSWVRQPPGKGLEWLGVIWGDGSTNYHSALISRFTISRDNSKNTLYLQMNSLRAEDTAVYYCARDTYYPYYAMDYWGQGTTVTVSSGGGGSGGGGSGGGGSDIQMTQSPSSLSASVGDRVTITCKASQDVSTAVAWYQQKPGKAPKLLIYSASYRYTGVPSRFSGSGSGTDFTLTISSLQPEDFATYYCQQHYSTPLTFGQGTKLEIKRGGGGSGGGGSGGGGSGGGGSDIVLTQSPSSLSASVGDRVTITCKASQSVDFDGDSFMNWYQQKPGKAPKLLIYTTSNLESGVPSRFSASGSGTDFTLTISSLQPEDFATYYCQQSNEDPYTFGCGTKVEIKRGGGGSGGGGSGGGGSGGGGSEVQLVESGGGDVQPGGSLRLSCAFSGFSLRTSGMGVGWIRQAPGKCLEWVAHIWWDDDKRYNPSVKGRFTISKDTSSNTVYLQMNSLRAEDTAVYYCAQINPAWFAYWGQGTLVTVSSGGGGSGGGGSGGGGSGGGGSEVQLVESGGGLVQPGGSLRLSCAASGFTFTDYYMSWVRQAPGKCLEWLALIRSKADGYTTEYSASVKGRFTISRDDSKNSLYLQMNSLKTEDTAVYYCARDAAYYSYYSPEGAMDYWGQGTSVTVSSGGGGSGGGGSGGGGSDIQMTQSPSSLSASVGDRVTITCKASQNVDSAVAWYQQKPGKAPKALIYSASYRYSGVPSRFSGSGSGTDFTLTISSLQPEDFATYYCQQYYSTPWTFGCGTKVEIKRGGGGSHHHHHH"
